## Assay results

The results are deposited in PubChem (AID1159506; NCATS, 2015).

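Genome-wide siRNA knockdown in TC32 Ewing sarcoma cells, comparing luciferase light from an NR0B1-promoter reporter with a CMV-promoter reporter 48 hours after transfection. Each siRNA was applied at 20 nM. A z-score of the log NR0B1-over-CMV signal, less the median of siRNAs with the same seed; more negative means a stronger specific loss of the NR0B1 reporter.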

The strongest results of the screen are mostly left out here. Sequences are the guide (antisense) strand, without overhang.

With AUUUUAAAUCGUACUUUCC against GRXCR2 the assay gave seed-corrected z-score 1.167.
With UACGUUAAUAGCAAAGUCC against ARID2 the assay gave seed-corrected z-score -0.4841.
With UUUGCGGAUAUUCUUGUUG against EIF2AK3 the assay gave seed-corrected z-score -0.3052.
With UCUGCAACUUGUAGUGUCG against SAP30L the assay gave seed-corrected z-score -0.4533.
With UGUAAACAAGGAAUAGUCC against LOC729968 the assay gave seed-corrected z-score -0.101.
With UAAGAGUUAAGGACUGGUU against ZNF273 the assay gave seed-corrected z-score -0.6446.
With UACUCGUUCAUCAGUAACC against FAP the assay gave seed-corrected z-score -0.2751.
With UCUUGUAGUCGGUCAGUGC against RNF187 the assay gave seed-corrected z-score 0.06221.
With AAAGGAUAGAAUAUCAUCC against IPO13 the assay gave seed-corrected z-score 0.6223.
With UCAGUUUCCACUUCGACAC against EXOSC7 the assay gave seed-corrected z-score -0.1112.
With AGCUGGAACAUGGACAACU against SIX3 the assay gave seed-corrected z-score -0.8742.
With UAUAGUAGUCUCUGGAGCC against CIRBP the assay gave seed-corrected z-score -0.1243.
With UCCGAUGAAGACACUCUGC against KRT80 the assay gave seed-corrected z-score 0.4504.
With UGCUAUAUAAAGAUAUCUG against H2AFJ the assay gave seed-corrected z-score 0.8167.
With UCAUGCAAGAUGGUGAUGG against KCNJ12 the assay gave seed-corrected z-score -0.03865.
With AGCGAUAUCAUUGCUCUGC against CBX5 the assay gave seed-corrected z-score 0.1753.
With UGCGUCACCAGGUUGUACU against ZNF710 the assay gave seed-corrected z-score -0.1278.
With UAUGAUGUCACUGUCCCGG against ENDOD1 the assay gave seed-corrected z-score -0.6078.
With UUGGUAACAACGUACAUCC against PTPN22 the assay gave seed-corrected z-score 0.3342.
With UGUUGGACACGUUCAGUUG against CCDC24 the assay gave seed-corrected z-score -1.164.
With UAAUGUUGGACACUGAGCG against CYP2F1 the assay gave seed-corrected z-score 0.1307.
With AAAAAGACCCUAGAGAUCG against ZNF837 the assay gave seed-corrected z-score 1.93.
With UGCUUGUCAGGGAUCUUUG against MAPK8 the assay gave seed-corrected z-score 0.6537.
With UCUGUGACUAAUUCCAGAG against MMAB the assay gave seed-corrected z-score 0.1101.
With CAUAUCUACAGCCAGAGCC against KRTAP21-2 the assay gave seed-corrected z-score 0.8009.
With UAGAGCAUAGAUGACAGGG against CNR2 the assay gave seed-corrected z-score 0.2408.
With AAGUGUAACAACAAAGUCU against SYPL1 the assay gave seed-corrected z-score 0.1829.
With AUUCUAUUAAGGAUCACUG against MRPL35 the assay gave seed-corrected z-score -0.1648.
With AAUUUGACUGCUUCAAUCC against FAM188A the assay gave seed-corrected z-score 0.4103.
With UUUCAGACAUAAAUCUCCG against LOC388813 the assay gave seed-corrected z-score -0.3757.
With UCUGGGAACUUGAGCAGCC against MVK the assay gave seed-corrected z-score 0.5565.
With UUUCCUGUCACAUCUACCU against TRIM21 the assay gave seed-corrected z-score 0.5998.
With UUGCAUAAAGUUGUCGUUG against GNAT3 the assay gave seed-corrected z-score -0.1692.
With UCAAGUAAAGUGCCUUUCC against BTBD3 the assay gave seed-corrected z-score 0.424.
With UCUGUUUACAGAUUUACUU against CYP3A5 the assay gave seed-corrected z-score -0.1138.
With AAAGAUACCUGAACCAUAG against OR3A1 the assay gave seed-corrected z-score 0.07307.

Some entries from above, unchanged:

With AAAGGAUAGAAUAUCAUCC against IPO13 the assay gave seed-corrected z-score 0.6223.
With AUUCUAUUAAGGAUCACUG against MRPL35 the assay gave seed-corrected z-score -0.1648.
With UCAAGUAAAGUGCCUUUCC against BTBD3 the assay gave seed-corrected z-score 0.424.